PubChem BioAssay AID686943, Drosophila RNAi Screening Center – 2013
The screen tested about 23,000 reagents; below is a random part of those that have a named target and a result. 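Extra replicates exist only for a retested subset of genes; insulin dose and duration not given; both raised and lowered dpERK matter.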 The numbers tell different reagents against one gene apart. Names joined by + are all predicted targets of the reagent. Not all columns of the deposit are shown. Not stated in the record: the amount of reagent, the time to read-out.

Screen: 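Knockdowns that increase or decrease active ERK after insulin receptor stimulation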 (primary screen)
Cell system: Drosophila S2R+ haemocyte-like cells expressing YFP-tagged ERK (Rolled)
Reagent: long dsRNA against Drosophila genes
Treatment: insulin stimulation versus unstimulated cells; dose and duration not given
Measurement: 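Per-plate z-scores of phospho-ERK immunostaining normalised to YFP-tagged ERK, measured with and without insulin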
Direction: replicate 1, z-score of dpERK with insulin: higher = more active ERK per ERK-YFP after insulin

The first 6 entries, to show the layout:
predicted target,reagent no.,"replicate 1, z-score of dpERK with insulin"
CG2076,1,0.3
CG3294,1,-0.09
dock,1,-1.4
CG4313,1,-0.54
VhaM9.7-d,1,-0.2
Skadu,1,0.18

Results, from the first entry:
predicted target,reagent no.,"replicate 1, z-score of dpERK with insulin"
CG2076,1,0.3
CG3294,1,-0.09
dock,1,-1.4
CG4313,1,-0.54
VhaM9.7-d,1,-0.2
Skadu,1,0.18
CG9864,1,-1.2
Prosbeta2R2,1,-1.08
Nrk,1,0.31
Tmtc4,1,-0.6
ImpL2,1,-0.85
CG12909,1,0.03
CG2260,1,0.95
LpR1,1,0.01
LpR1,2,-0.6
LpR1,3,0.04
CG13024,1,-0.38
puc,1,-4.3
Nmdmc,1,0.04
Gss1 + Gss2,1,0.43
Gss1 + Gss2,2,0.42
CG6891,1,-0.08
CG32669,1,0.81
CG14499,1,0.79
Tob,1,0.68
CG30098,1,-0.01
CG15890,1,-0.18
CG15773,1,0.11
CG31664,1,-2.52
Ass + CG31286,1,-0.93
alphaTub85E,1,-2.9
Gyc89Db,1,-0.07
Ccm3,1,-1.58
Hsp68,1,1.37
skl,1,-0.05
Clk,1,-0.75
CG4962,1,0.67
Alg12,1,-0.23
mRpL52,1,0.79
CG9919,1,0.28
vis + achi,1,1.19
Cadps,1,0.09
Cadps,2,-3.53
CG17739,1,0.68
CG11714,1,-1.05
tty,1,1.2
Lrrk,1,1.08
Lrrk,2,-0.04
lncRNA:CR43451,1,-0.33
CG15185,1,0.32
Hmt-1,1,-0.76
CG16749,1,0.29
CG6865,1,-1.79
Dyrk2,1,1.61
CG15170,1,-0.48
sgg,1,0.02
sgg,2,-0.03
sgg,3,0.82
yem,1,0.21
yem,2,-1.13
Vps16B,1,-0.38
CG6052,1,-0.09
CG12885,1,-1.82
slmb,1,0.13
Ctu1,1,-0.01
spab,1,0.7
Vago,1,0.81
Nt5a,1,0.7
Cfp1,1,-1.24
rtet,1,0.74
Spt20,1,-0.62
CG11722,1,-0.33
Khc,1,-0.7
